The target in experiment [1] is T1, FBXO15 in HEK293T cells (co-immunoprecipitation) (UniProt Q8NCQ5).
T1 sequence: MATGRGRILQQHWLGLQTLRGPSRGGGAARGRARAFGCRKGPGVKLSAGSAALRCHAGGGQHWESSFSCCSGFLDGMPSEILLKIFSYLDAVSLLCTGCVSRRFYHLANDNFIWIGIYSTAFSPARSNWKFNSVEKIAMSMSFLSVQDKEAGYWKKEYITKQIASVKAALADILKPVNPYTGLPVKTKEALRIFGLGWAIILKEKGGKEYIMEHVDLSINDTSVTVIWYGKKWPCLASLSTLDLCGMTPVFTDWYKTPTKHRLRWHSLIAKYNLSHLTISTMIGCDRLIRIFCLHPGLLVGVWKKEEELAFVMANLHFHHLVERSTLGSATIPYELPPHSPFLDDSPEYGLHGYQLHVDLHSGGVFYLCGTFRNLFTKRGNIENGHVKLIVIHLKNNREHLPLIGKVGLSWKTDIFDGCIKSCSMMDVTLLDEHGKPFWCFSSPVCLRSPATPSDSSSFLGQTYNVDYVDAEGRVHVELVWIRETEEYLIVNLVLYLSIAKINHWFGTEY
Description: co-IP; HEK293T cells treated with MG132 (10 μM) for 6 h; lysates immunoprecipitated for SOX2 or STAT3 and for the Myc- or Myc/Flag-tagged protein.

Sequences of proteins named here, by UniProt entry; tags and fusion partners are left off.
UniProt P48431: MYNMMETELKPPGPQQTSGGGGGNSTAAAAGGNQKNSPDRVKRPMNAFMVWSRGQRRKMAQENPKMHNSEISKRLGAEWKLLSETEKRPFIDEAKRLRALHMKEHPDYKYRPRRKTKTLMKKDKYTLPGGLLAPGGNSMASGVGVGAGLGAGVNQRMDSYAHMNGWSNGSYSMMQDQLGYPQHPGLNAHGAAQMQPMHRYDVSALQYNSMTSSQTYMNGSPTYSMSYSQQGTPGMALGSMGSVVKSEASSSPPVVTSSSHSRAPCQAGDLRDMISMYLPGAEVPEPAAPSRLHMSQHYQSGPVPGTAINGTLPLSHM
UniProt P40763: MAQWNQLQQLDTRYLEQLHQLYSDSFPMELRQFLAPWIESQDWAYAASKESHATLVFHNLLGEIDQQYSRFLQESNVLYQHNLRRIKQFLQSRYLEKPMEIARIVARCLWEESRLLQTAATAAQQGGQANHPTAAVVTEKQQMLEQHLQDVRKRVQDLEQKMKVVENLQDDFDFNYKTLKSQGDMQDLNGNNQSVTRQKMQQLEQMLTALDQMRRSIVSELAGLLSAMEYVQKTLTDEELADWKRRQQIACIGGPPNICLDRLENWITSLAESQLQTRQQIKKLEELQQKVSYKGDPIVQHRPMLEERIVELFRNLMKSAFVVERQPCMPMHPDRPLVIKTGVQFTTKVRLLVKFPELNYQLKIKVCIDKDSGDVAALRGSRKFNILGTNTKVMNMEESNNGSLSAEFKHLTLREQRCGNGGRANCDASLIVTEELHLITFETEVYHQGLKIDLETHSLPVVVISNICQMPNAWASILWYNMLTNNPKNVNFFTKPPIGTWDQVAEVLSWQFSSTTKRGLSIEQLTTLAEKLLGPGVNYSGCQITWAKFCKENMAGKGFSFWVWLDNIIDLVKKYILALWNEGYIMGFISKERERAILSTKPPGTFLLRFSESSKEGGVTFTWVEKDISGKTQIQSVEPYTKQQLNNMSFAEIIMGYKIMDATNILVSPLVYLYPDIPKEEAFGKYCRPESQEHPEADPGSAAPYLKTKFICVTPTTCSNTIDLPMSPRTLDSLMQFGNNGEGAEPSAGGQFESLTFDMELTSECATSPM

Experiment [2] concerns the target T2, F-box protein 15 (FBXO15), endogenous in MCF7 cells (human (endogenous in MCF7)) (UniProt Q8NCQ5).
T2 sequence: T1 sequence
Nature of the experiment: proximity ligation; PLA in fixed MCF7 cells with mouse anti-SOX2 or anti-STAT3 and rabbit anti-FBXO15; dots per cell counted with ImageJ.

Experiment [3] addresses T2, F-box protein 15 (FBXO15), endogenous in MCF7 cells (human (endogenous in MCF7)). Description: co-IP; MCF7 cell lysate immunoprecipitated with an FBXO15 antibody or IgG control; endogenous proteins; cells treated with MG132 (10 μM) for 6 h before harvest.

The values that follow come from PMC8175582.

These are yes or no findings as the source states them, for the method shown. In cells and extracts the contact can be indirect. Some results given as binding are weak or reduced against the parent protein; the word gives no strength.

On to “SOX2 in HEK293T cells (co-immunoprecipitation) (from UniProt P48431 1-317)”, for which the binding entry in experiment [1] is given as “binds”.

Regarding “SOX2, endogenous in MCF7 cells (from UniProt P48431 1-317)”, the binding result in experiment [2] and in experiment [3] was “binds” in each case.

For “STAT3 in HEK293T cells (co-immunoprecipitation) (from UniProt P40763 1-770)”, in experiment [1], the binding result is recorded as “binds”.

“STAT3, endogenous in MCF7 cells (from UniProt P40763 1-770)”: the binding result in experiment [2] and in experiment [3] was “binds” in each case.
